Results: the supplement of paper PMC10849652
The other results are listed elsewhere or left out.

Protein sequences, listed by entry. Tags and fused reporters are not part of them. Lines headed by an entry give the natural chain unless they say otherwise; changes in a name come on top.
UniProt E9PJD7, whole entry, looked up: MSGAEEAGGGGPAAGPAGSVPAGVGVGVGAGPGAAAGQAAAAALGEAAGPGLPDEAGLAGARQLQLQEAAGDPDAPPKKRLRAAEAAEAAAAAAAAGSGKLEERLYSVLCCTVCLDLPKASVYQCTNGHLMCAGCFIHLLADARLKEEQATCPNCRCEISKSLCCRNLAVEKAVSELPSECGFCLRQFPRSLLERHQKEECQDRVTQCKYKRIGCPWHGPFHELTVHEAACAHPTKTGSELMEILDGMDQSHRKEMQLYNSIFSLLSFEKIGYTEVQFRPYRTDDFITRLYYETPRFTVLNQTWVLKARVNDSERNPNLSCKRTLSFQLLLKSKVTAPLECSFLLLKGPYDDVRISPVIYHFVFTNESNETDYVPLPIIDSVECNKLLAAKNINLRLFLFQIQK
UniProt P78560: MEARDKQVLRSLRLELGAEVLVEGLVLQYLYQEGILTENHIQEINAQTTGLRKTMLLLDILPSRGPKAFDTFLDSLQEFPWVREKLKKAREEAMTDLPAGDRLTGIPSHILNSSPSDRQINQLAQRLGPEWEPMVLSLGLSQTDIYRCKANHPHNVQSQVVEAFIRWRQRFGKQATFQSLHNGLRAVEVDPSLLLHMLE
UniProt Q96DE9: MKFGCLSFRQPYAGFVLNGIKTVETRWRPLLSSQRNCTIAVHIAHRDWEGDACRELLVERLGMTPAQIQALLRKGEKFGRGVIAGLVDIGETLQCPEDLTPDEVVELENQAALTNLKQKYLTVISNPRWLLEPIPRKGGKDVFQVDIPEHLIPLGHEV
UniProt P08574: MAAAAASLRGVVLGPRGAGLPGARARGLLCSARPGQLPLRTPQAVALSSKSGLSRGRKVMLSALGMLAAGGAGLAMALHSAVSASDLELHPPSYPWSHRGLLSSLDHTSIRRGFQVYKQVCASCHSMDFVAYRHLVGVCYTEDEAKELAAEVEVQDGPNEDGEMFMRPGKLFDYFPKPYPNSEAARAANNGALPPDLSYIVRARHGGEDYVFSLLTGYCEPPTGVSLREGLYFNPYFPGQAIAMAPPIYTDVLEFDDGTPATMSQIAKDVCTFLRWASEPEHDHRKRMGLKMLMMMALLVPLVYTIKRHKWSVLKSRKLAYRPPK
UniProt P35222, whole entry, looked up: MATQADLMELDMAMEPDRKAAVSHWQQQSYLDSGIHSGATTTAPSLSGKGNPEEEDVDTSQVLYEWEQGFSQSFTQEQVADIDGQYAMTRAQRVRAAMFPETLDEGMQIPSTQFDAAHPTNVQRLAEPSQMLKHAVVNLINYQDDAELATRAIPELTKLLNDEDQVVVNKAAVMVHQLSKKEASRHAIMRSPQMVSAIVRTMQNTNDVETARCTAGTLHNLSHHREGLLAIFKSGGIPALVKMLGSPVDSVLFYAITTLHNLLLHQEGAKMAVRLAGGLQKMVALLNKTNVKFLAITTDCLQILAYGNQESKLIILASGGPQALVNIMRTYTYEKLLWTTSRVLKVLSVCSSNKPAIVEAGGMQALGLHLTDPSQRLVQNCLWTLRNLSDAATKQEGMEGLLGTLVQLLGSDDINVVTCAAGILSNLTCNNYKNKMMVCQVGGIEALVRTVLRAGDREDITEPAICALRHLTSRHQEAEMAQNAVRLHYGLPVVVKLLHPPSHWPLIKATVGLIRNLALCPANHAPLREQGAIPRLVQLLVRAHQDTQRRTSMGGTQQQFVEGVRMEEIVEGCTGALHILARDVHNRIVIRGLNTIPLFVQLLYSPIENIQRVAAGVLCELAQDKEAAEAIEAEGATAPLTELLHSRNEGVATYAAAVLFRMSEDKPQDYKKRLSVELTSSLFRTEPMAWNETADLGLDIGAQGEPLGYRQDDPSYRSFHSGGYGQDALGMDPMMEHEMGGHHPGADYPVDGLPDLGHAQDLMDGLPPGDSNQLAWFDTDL
UniProt P00387: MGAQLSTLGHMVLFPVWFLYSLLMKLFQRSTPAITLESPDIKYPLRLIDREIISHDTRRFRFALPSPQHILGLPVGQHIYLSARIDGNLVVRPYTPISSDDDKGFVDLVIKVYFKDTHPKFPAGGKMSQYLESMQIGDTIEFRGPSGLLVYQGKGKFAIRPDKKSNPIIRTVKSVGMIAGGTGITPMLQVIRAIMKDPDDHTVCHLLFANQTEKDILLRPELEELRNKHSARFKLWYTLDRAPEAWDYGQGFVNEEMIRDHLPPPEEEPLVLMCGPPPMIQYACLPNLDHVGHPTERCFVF
UniProt P19784, whole entry, looked up: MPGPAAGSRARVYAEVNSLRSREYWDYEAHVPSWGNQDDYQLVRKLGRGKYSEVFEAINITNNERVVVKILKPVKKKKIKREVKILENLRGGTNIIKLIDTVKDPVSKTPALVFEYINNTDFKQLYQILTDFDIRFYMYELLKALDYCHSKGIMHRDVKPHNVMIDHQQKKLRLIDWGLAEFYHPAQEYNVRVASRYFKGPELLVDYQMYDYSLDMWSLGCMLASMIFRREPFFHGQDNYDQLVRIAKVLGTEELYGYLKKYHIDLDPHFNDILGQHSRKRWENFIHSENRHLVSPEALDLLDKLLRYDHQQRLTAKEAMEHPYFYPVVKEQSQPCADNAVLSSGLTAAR
UniProt P0C2W7: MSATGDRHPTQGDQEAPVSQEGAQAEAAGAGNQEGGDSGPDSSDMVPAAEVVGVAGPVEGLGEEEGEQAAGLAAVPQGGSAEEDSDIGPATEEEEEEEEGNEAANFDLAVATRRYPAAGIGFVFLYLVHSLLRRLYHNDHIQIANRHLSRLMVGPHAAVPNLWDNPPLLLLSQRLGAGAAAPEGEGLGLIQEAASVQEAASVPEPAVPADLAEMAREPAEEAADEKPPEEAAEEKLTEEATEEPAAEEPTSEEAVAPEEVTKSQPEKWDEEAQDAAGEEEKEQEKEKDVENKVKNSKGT
UniProt Q9Y600: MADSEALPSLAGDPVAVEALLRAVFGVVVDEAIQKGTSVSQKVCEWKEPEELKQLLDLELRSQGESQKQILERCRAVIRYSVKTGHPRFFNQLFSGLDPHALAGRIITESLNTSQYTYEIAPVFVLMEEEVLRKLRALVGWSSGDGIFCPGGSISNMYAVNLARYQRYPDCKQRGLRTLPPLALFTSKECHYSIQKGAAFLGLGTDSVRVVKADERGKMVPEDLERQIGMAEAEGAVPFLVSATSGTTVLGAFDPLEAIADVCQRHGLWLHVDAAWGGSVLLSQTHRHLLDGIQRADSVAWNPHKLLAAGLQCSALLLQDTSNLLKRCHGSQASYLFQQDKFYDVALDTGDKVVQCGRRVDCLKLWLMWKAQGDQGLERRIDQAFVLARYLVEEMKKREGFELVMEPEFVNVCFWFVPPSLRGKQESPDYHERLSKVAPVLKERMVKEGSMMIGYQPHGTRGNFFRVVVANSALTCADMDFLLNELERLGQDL
UniProt Q9GZU7: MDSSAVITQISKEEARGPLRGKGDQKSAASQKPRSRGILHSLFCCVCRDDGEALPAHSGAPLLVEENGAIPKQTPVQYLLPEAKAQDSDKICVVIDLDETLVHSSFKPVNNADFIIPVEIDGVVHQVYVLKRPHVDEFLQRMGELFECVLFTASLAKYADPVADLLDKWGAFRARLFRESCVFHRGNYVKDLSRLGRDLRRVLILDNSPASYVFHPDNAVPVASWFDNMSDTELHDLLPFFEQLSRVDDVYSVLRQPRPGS
UniProt P43155: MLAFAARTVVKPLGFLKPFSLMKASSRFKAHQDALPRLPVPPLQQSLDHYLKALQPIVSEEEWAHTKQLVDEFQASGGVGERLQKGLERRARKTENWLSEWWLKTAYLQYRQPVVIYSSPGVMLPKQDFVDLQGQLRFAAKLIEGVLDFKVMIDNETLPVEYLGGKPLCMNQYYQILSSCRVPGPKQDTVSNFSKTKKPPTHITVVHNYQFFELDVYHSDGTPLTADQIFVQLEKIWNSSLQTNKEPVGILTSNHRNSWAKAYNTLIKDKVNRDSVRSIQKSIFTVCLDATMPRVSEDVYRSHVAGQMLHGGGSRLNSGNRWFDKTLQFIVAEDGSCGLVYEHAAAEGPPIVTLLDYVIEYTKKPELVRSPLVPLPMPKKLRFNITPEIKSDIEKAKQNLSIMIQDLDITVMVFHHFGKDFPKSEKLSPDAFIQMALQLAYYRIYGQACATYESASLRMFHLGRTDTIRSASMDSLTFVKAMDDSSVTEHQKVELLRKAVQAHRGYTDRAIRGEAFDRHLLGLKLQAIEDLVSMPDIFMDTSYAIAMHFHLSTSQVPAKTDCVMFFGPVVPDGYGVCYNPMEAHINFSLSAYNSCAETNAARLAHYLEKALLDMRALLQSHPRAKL
UniProt P01034: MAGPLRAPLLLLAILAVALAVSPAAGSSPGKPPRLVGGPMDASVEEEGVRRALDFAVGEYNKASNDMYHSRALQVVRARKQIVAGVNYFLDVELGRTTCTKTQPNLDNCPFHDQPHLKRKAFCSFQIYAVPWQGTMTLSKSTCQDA
UniProt Q6UUV7: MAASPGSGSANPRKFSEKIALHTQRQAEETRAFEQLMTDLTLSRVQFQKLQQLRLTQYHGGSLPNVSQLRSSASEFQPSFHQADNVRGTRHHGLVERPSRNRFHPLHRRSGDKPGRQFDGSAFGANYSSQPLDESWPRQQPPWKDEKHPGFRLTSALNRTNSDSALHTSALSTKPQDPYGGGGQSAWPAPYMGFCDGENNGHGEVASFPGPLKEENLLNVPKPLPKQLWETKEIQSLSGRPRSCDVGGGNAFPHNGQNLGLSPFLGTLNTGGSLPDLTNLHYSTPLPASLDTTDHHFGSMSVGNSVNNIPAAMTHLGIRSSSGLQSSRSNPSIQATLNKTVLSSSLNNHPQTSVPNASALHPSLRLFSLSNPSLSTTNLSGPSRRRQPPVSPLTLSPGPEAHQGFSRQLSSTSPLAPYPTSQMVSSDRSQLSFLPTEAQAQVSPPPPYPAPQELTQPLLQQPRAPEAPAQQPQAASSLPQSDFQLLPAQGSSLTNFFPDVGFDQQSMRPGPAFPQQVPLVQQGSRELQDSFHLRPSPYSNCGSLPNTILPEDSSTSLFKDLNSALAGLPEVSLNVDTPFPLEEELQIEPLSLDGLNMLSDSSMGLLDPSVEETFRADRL
UniProt Q9P0U4, whole entry, looked up: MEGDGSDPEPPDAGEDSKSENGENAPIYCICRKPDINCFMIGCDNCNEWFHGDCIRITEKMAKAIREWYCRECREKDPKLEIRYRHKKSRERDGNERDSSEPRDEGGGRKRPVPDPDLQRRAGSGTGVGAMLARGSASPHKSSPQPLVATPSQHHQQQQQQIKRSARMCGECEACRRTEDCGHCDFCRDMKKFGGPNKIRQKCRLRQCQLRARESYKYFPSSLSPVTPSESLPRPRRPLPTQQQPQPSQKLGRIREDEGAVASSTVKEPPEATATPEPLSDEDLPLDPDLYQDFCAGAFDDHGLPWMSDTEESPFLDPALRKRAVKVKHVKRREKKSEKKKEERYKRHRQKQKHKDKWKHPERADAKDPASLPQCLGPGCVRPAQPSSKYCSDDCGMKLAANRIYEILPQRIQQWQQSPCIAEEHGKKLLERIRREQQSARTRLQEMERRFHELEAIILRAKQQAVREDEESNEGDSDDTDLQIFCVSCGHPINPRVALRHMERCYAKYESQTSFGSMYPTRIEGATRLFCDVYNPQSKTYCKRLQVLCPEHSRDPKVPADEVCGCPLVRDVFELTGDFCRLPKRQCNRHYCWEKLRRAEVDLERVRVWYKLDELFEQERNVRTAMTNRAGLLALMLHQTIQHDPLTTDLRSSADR
UniProt Q8NBI2: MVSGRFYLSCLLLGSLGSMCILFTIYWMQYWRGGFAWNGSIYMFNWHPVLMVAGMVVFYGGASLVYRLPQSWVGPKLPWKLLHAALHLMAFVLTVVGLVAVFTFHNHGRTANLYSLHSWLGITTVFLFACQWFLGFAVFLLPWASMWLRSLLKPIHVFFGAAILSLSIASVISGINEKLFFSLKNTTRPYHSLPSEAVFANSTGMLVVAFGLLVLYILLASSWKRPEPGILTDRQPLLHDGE
UniProt P17812: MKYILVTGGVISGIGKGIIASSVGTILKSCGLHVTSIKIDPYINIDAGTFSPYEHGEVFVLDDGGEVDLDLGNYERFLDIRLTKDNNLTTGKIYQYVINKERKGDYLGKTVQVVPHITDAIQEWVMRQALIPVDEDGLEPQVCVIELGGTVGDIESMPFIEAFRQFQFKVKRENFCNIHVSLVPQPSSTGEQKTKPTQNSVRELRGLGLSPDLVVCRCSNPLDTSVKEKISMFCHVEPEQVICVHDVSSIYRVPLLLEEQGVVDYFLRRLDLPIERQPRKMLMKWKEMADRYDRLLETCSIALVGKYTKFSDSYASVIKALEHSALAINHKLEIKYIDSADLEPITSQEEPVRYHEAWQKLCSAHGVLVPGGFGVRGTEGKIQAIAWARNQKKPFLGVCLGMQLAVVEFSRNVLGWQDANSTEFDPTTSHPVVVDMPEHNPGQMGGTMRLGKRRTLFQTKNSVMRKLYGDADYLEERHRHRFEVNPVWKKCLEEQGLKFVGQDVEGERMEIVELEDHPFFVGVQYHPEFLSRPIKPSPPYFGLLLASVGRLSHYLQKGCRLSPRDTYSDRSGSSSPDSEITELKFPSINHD

Columns and labels:
Assay in all cases: log2 fold change, soluble protein after heating vs DMSO (PISA); higher = thermal stabilisation; K562 lysate, 10 uM; active = over 0.2 and 3.5 SD of the protein, either way, in both replicates (recomputed)
[1] = compound: C1=CC=C(C=C1)[C@H](COC2=CC3=C(C=C2)NC(=O)N3)NC(=O)C4=CC=CN(C4=O)CC5=CC(=C(C=C5)F)F
Summary of the method: (§1)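 The values are log-two fold changes in thermal stability compared with solvent controls and come from duplicates. They were obtained by TMTpro 16plex LC-MS/MS, with channel sums equalised, on the supernatant after 21,000xg for 90 min. That supernatant came from crude K562 extract at 1 mg/mL protein treated with 10 μM compound for 30 min, heated for 3 min across 48°C-58°C, pooled and brought to 0.5% NP-40 at 4°C.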

[2] = compound: CC1=C(SC2=C1C(=N[C@H](C3=NN=C(N32)C)CC(=O)N)C4=CC=C(C=C4)Cl)C
Summary of the method: as §1

[3] = compound: CC1=C2C(=CC=C1)N=C(N(C2=O)C3=CC=CC=C3C)CN4C=NC5=C(N=CN=C54)N
Summary of the method: as §1

[4] = compound: Cc1sc2c(c1C)C(c1ccc(Cl)cc1)=N[C@@H](CC(=O)OC(C)(C)C)c1nnc(C)n1-2
Summary of the method: as §1

[5] = compound: c1ccc([C@@H]2C[C@H]2NC2CCNCC2)cc1
Summary of the method: as §1

Measured: log2 fold change

CYB5R4 (UniProt Q7L1T6)
inactive: [1] -0.056 | [2] -0.001 | [3] 0.046 | [4] -0.086 | [5] -0.01

CYHR1 (UniProt E9PJD7)
inactive: [1] -0.031 | [2] 0.063 | [3] -0.104 | [4] 0.021 | [5] 0.015

CRADD (UniProt P78560)
inactive: [1] 0.066 | [2] -0.016 | [3] 0.116 | [4] -0.006 | [5] 0.07

CXorf40B (UniProt Q96DE9)
inactive: [1] -0.151 | [2] -0.183 | [3] 0.168 | [4] 0.017 | [5] 0.051

CYC1 (UniProt P08574)
inactive: [1] 0.006 | [2] 0 | [3] -0.046 | [4] 0.069 | [5] -0.014

CTNNB1 (UniProt P35222)
inactive: [1] -0.073 | [2] 0.01 | [3] -0.101 | [4] -0.019 | [5] -0.012

CYFIP1 (UniProt Q7L576)
inactive: [1] -0.011 | [2] 0.004 | [3] 0.04 | [4] 0.002 | [5] 0

CTSH (UniProt P09668)
inactive: [1] 0.007 | [2] -0.039 | [3] -0.002 | [4] 0.04 | [5] -0.032

CSPG5 isoform 2 (UniProt O95196)
inactive: [1] 0.126 | [2] 0.165 | [3] -0.138

CTCFL isoform 7 (UniProt Q8NI51)
inactive: [1] 0.002 | [2] 0.049

CYB5R3 isoform 3 (UniProt P00387)
inactive: [1] 0.035 | [2] -0.03 | [3] 0.007 | [4] 0.008 | [5] 0.02

CSNK2A2 (UniProt P19784)
inactive: [1] -0.02 | [2] -0.033 | [3] -0.213 | [4] 0.038 | [5] 0.015

Taken from the listing (2 entries):
CTCFL isoform 7 (UniProt Q8NI51)
inactive: [1] 0.002 | [2] 0.049

CYB5R3 isoform 3 (UniProt P00387)
inactive: [1] 0.035 | [2] -0.03 | [3] 0.007 | [4] 0.008 | [5] 0.02

(list continues)

CUSTOS (UniProt Q96C57)
inactive: [1] 0.035 | [2] -0.043 | [3] 0.01 | [4] 0.071 | [5] -0.008

CT47B1 (UniProt P0C2W7)
inactive: [1] -0.2 | [2] 0 | [3] -0.14 | [4] -0.073

CSAD isoform 3 (UniProt Q9Y600)
inactive: [1] -0.081 | [2] 0.137

CTDSP1 isoform 3 (UniProt Q9GZU7)
inactive: [1] 0.033 | [2] -0.036

CTBP2 isoform 2 (UniProt P56545)
inactive: [1] -0.038 | [2] 0.003 | [3] 0.039 | [4] 0.005 | [5] -0.004

CYFIP2 (UniProt Q96F07)
inactive: [1] -0.023 | [2] 0.002 | [3] 0.029 | [4] 0.003 | [5] -0.002

CRAT (UniProt P43155)
inactive: [1] -0.043 | [2] 0.057 | [3] 0.064 | [4] 0.007

CST3 (UniProt P01034)
inactive: [1] -0.022 | [2] 0.039 | [3] 0.029 | [4] -0.001 | [5] 0.056

CRTC3 (UniProt Q6UUV7)
inactive: [1] 0.046 | [2] 0.146 | [3] -0.1 | [4] 0.063

CTNNA1 (UniProt P35221)
inactive: [1] 0.001 | [2] 0.033 | [3] -0.006 | [4] -0.01 | [5] -0.019

CXXC1 isoform 2 (UniProt Q9P0U4)
inactive: [1] 0.006 | [2] 0.07 | [3] 0.032 | [4] -0.173 | [5] 0.029

CYB561A3 isoform 2 (UniProt Q8NBI2)
inactive: [1] 0.026 | [2] 0.016 | [3] 0.012 | [4] -0.225 | [5] -0.24

CTPS1 (UniProt P17812)
inactive: [1] -0.02 | [2] -0.013 | [3] -0.029 | [4] -0.014 | [5] 0.023

CSK (UniProt P41240)
inactive: [1] -0.039 | [2] -0.049 | [3] -0.019 | [4] -0.057 | [5] -0.037
